# In all, about 400,000 compounds went through this assay and about 13,000 (3.2%) were called active. Inconclusive results, whose numbers are uncertain, are shown with a selection of clear calls. The call rests on the fitted dose curve; in most records, active means well fitted cell-killing curve with a large enough effect; inconclusive means small, poorly fitted or top-dose-only effect, or effect the other way; inactive means flat fitted curve, though single readings scatter. A potency beside an inconclusive call is a rough fit, not a confirmed value.
# Test: qHTS assay for MDR1-selective chemotherapeutics: Primary screen using the drug-selected MDR subline cells KB-V1; further: nearly all actives have a fitted effect of over 60% in size
# Conditions: KB-V1 MDR cells viability, CellTiter-Glo, 72 h; activity change, negative = cytotoxicity: at 46.1 µM (top of the series)
# Summary of the method: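 Compound-treated KB-V1 multidrug-resistant cells, 72 h, 37 degrees C; viability by CellTiter-Glo. Fitted qHTS curves give the values.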
# On the % scale 0 is the no-effect control and ±100 the full control effect; potency means the concentration at half of the fitted maximal effect.
SMILES,Potency,"activity change, negative = cytotoxicity"
CC(C)(C)OC(=O)NCc1ccc(CNC(=O)c2nc[nH]c2C(=O)N2CCN(c3ccccc3)CC2)cc1,inactive,–
O=C(CSc1nnc(CNc2ccc(F)cc2)o1)N1c2ccccc2Sc2ccccc21,active: 3.26 µM,–
Cc1ccc(-c2ccc(=O)n(CC(=O)Nc3ccc(C)cc3Cl)n2)cc1,inactive,–
Cc1cccc(CN2C(=O)N(c3ccc(C(C)C)cc3)S(=O)(=O)c3ccccc32)c1,"inconclusive: 29.1 µM [cytotoxic, single point]",–
COc1cc2c(c(OC)c1OC)-c1ccc(N(C)CC(OC)OC)c(=O)cc1[C@@H](NC(C)=O)CC2,"inconclusive: 29.1 µM [cytotoxic, single point]",–
COc1ccc(C2/C(=C(/O)c3ccccc3)C(=O)C(=O)N2c2ncccn2)cc1OC (stereo not drawn),"inconclusive: 29.1 µM [cytotoxic, single point]",–
O=C(CCC(=O)N1CCOc2ccccc21)Nc1ccccc1Br,–,inconclusive: 6.11%
O=c1c(-c2nc3ccccc3s2)cccn1Cc1ccc(Cl)cc1,inactive,–
Cc1ccc(S(=O)(=O)N2CCN(C(=O)CN3C(=O)NC(C)(c4ccc5ccccc5c4)C3=O)CC2)cc1 (stereo not drawn),"inconclusive: 29.1 µM [cytotoxic, single point]",–
O=C(NCc1nc2ccccc2[nH]1)C1=C[C@H](c2ccccc2)C[C@H](OCc2ccc(CO)cc2)O1,inactive,–
O=C(CC(=O)NN=Cc1ccc2c(c1)CCC2)NN=Cc1ccc2c(c1)CCC2,inactive,–
NC(=O)CSc1nnc(NC(=O)c2ccc(Br)o2)s1,"inconclusive: 3.66 µM [rising, partial curve, poor fit]",–
Cc1cccc(C)c1NC(=O)C(c1ccc(C#N)cc1)n1c(=O)c(-c2cc3ccccc3[nH]2)nc2ccccc21 (stereo not drawn),"inconclusive: 10.3 µM [cytotoxic, partial curve]",–
Cc1ccc(C(=O)c2oc3ccccc3c2N)cc1,inactive,–
O=C(O)c1ccc(N/N=C/c2cc3cc4c(cc3nc2Cl)OCCO4)cc1,inactive,–
COc1cc(OC)cc(C(=O)NC(=S)NNC(=O)[C@H]2C[C@@H]2c2ccccc2)c1,"inconclusive: 2.59 µM [cytotoxic, partial curve, poor fit]",–
Cc1cc(C)cc(OCC(=O)N(C)CC(=O)Nc2ccc(N3CCOCC3)cc2)c1,"inconclusive: 23.1 µM [cytotoxic, partial curve, poor fit]",–
C=CCNC(=O)c1ccccc1NC(=O)C1CCN(S(=O)(=O)c2ccc(SC)cc2)CC1,"inconclusive: 8.2 µM [cytotoxic, partial curve]",–
O=C(N/N=C/c1ccco1)c1cccc(N2Cc3ccccc3C2)c1,inactive,–
C=CCn1c(SCC(=O)c2[nH]c(C)c(C(=O)OCC)c2C)nc2scc(-c3ccc(OC)c(OC)c3)c2c1=O,"inconclusive: 29.1 µM [cytotoxic, single point]",–
COC(=O)N1CCC2CC1c1c(Cl)cccc12 (stereo not drawn),inactive,–
OC(CN1CCOCC1)C12CC3CC(CC(C3)C1)C2 (stereo not drawn),inactive,–
CC(C)N(Cc1ccccc1)C(=O)COC(=O)c1ccc(O)cc1,inactive,–

# 3 successive entries out of the list so far, quoted:
SMILES,Potency,"activity change, negative = cytotoxicity"
O=C(N/N=C/c1ccco1)c1cccc(N2Cc3ccccc3C2)c1,inactive,–
C=CCn1c(SCC(=O)c2[nH]c(C)c(C(=O)OCC)c2C)nc2scc(-c3ccc(OC)c(OC)c3)c2c1=O,"inconclusive: 29.1 µM [cytotoxic, single point]",–
COC(=O)N1CCC2CC1c1c(Cl)cccc12 (stereo not drawn),inactive,–

# Later entries.

SMILES,Potency,"activity change, negative = cytotoxicity"
CC(=O)Oc1ccc(N(C(C)=O)S(=O)(=O)c2ccc(Cl)cc2)c2ccccc12,"inconclusive: 16.4 µM [cytotoxic, single point]",–
COc1ccc(C(=O)Nc2ccc3oc(-c4cccnc4)nc3c2)cc1,"inconclusive: 1.84 µM [cytotoxic, full curve]",–
COCCN(C(=O)CSc1nnc(-c2ccc(C(C)(C)C)cc2)n1N)c1c(N)n(CC(C)C)c(=O)[nH]c1=O,"inconclusive: 8.2 µM [rising, partial curve, poor fit]",–
C=CCC[C@H](Cc1ccc(F)cc1)C(=O)OC[C@H](Cc1c[nH]c2ccccc12)NC(=O)[C@H](CC=C)CC(=O)N[C@H](CO)Cc1ccccc1,inactive,–
CCCCCc1c(-c2cccc(F)c2)ncn1CCc1ccccc1OC,active: 8.2 µM,–
COc1cc(C(=O)N/N=C/c2ccc(OC)c(CN3CCN(c4ccc(F)cc4)CC3)c2)ccc1O,inactive,–
Cc1ccc(S(=O)(=O)NC(C)C(c2cccs2)N2CCN(C)CC2)cc1 (stereo not drawn),inactive,–
COC(=O)CN1C(=O)N(c2ccccc2)C(N(O)C(=O)Nc2ccccc2)C1(C)C (stereo not drawn),"inconclusive: 29.1 µM [cytotoxic, single point]",–
O=C(Nc1ccc(Cl)c(Cl)c1)C1CC(=O)N(c2ccc(Br)cc2)C1 (stereo not drawn),inactive,–
N#CC1(NC(=O)CSc2nnc3n2CCCCC3)CCCCC1,inactive,–
S=c1[nH]nc(-c2cccnc2)n1/N=C/C(Cl)=C\c1ccccc1,"inconclusive: 16.4 µM [cytotoxic, partial curve]",–
CCOC(=O)[C@]12CCCC=C1N(Cc1cccc3ccccc13)C(=O)[C@H](CC(=O)NCc1ccccc1)C2,"inconclusive: 11.6 µM [cytotoxic, partial curve]",–
CCN1CCN(C(=O)c2cc(=O)c3cc(C)ccc3o2)CC1,inactive,–
CC1(C)NC(=O)N(CCOc2cccc(Oc3ccccc3)c2)C1=O,"inconclusive: 18.4 µM [cytotoxic, single point]",–
CCN(CC)c1ccc(C=C2C(=O)OC(c3ccccc3)OC2=O)cc1 (stereo not drawn),inactive,–
CCN(CC)Cc1c(C(=O)N2CCc3ccccc3C2)nc2ccc(Cl)cn12,"inconclusive: 13 µM [cytotoxic, partial curve]",–
CC(C)n1c(=S)[nH]c2cc(Cl)ccc21,"inconclusive: 29.1 µM [cytotoxic, single point]",–
CCCCn1nnnc1C(CCSC)N1CCN(C/C=C/c2ccccc2)CC1 (stereo not drawn),"inconclusive: 14.6 µM [cytotoxic, partial curve]",–
CN(C)S(=O)(=O)c1ccc(C(=O)Nc2nnc(Cc3ccccc3)s2)cc1,"inconclusive: 16.4 µM [rising, partial curve]",–
CC(C)(CNC(=O)c1ccc([N+](=O)[O-])c(Cl)c1)CNC(=O)c1ccc([N+](=O)[O-])c(Cl)c1,"inconclusive: 20.6 µM [cytotoxic, partial curve, poor fit]",–
CN(C(=O)CSc1nnc(COc2ccccc2F)n1N)C1CCCCC1,inactive,–
Cc1cc(Cl)ccc1OCC(=O)Nc1c(Cl)ccc2nsnc12,"inconclusive: 2.59 µM [cytotoxic, full curve]",–
CC(C)[C@H](NC(=O)N1CCn2c1nc1ccccc12)C(=O)NCc1ccc(F)cc1,"inconclusive: 20.6 µM [cytotoxic, single point]",–

# Some of the entries so far, bar-delimited.
SMILES | Potency | activity change, negative = cytotoxicity
CN(C)S(=O)(=O)c1ccc(C(=O)Nc2nnc(Cc3ccccc3)s2)cc1 | inconclusive: 16.4 µM [rising, partial curve] | –
Cc1cc(Cl)ccc1OCC(=O)Nc1c(Cl)ccc2nsnc12 | inconclusive: 2.59 µM [cytotoxic, full curve] | –

# Following part

SMILES,Potency,"activity change, negative = cytotoxicity"
O[C@@H]1CN(Cc2cccs2)[C@@H](c2ccccc2)C[C@H]1n1cc(C2CC2)nn1,"inconclusive: 16.4 µM [cytotoxic, single point]",–
O=C(NC1CCCCC1)C1CC(=O)N(CCc2ccccc2)C1 (stereo not drawn),"inconclusive: 14.6 µM [cytotoxic, partial curve]",–
COc1ccc(S(=O)(=O)NCC2CCCN(C(=O)CNC(C)=O)C2)cc1 (stereo not drawn),"inconclusive: 23.1 µM [rising, partial curve, poor fit]",–
CC(Sc1n[nH]c(=O)n1Cc1ccccc1)C(=O)NC1CCCCC1C (stereo not drawn),"inconclusive: 16.4 µM [cytotoxic, single point]",–
CC1CCCN(C(=O)C2CCN(c3nc(-c4ccccc4)nc4c3CCC4)CC2)C1 (stereo not drawn),"inconclusive: 5.17 µM [cytotoxic, full curve]",–
O=C(O)CCCCCNc1ccc2nsnc2c1[N+](=O)[O-],"inconclusive: 6.51 µM [rising, partial curve]",–
O=C(Nc1c2c(nc3ccccc13)CCCC2)c1ccccc1F,inactive,–
CCC(=O)N1CCc2cc(S(=O)(=O)CCC(=O)Nc3ccc(OC(F)(F)F)cc3)ccc21,inactive,–
COc1ccc(CC(=O)Nc2sc3c(c2C(=O)Nc2cccc(Cl)c2)CCCCC3)cc1,"inconclusive: 16.4 µM [cytotoxic, single point]",–
CN(C(=O)COC(=O)c1ccc(Br)c(S(=O)(=O)N2CCOCC2)c1)C1CCCCC1,inactive,–
CCOc1ccccc1NC(=O)c1ccccc1-c1ccccc1,inactive,–
CCN(C[C@H]1N[C@@](CC)(C(=O)OC)[C@H]2C(=O)N(C)C(=O)[C@@H]12)S(=O)(=O)c1ccc(F)cc1,inactive,–
C/C(=N\NC(=O)c1c(Cl)c(C)nn1C)c1ccc(NC(=O)C2CCC2)cc1,active: 3.26 µM,–
CCOC(=O)c1c(-c2ccc(C)cc2)csc1NC(=O)c1cc2ccccc2oc1=O,inactive,–
COc1cc(C2Nc3cccc4cccc(c34)N2)ccc1OC(C)=O,"inconclusive: 14.6 µM [cytotoxic, partial curve]",–
COc1ccc(S(=O)(=O)N2CCCCC2)cc1NC(=O)c1ccc([N+](=O)[O-])o1,inactive,–
C=CCn1c(O)c(N=NC(=S)Nc2cccc(OC)c2)c2ccccc21,"inconclusive: 11.6 µM [cytotoxic, partial curve, poor fit]",–
Cc1ccc(S(=O)(=O)N2CCOCC2)cc1C(=O)Nc1ccccc1N1CCCC1,"inconclusive: 8.2 µM [cytotoxic, partial curve, poor fit]",–
CC(C)(c1ccccc1)c1ccc(OCCCNCCO)cc1,"inconclusive: 18.4 µM [cytotoxic, single point]",–
Cc1ccc(S(=O)(=O)N(C)C)cc1NC(=O)C1Cc2ccccc2CN1C(=O)c1ccco1 (stereo not drawn),"inconclusive: 13 µM [cytotoxic, partial curve]",–
CCC1CCCCN1C(=O)CCCOc1ccccc1 (stereo not drawn),"inconclusive: 29.1 µM [cytotoxic, single point]",–
O=C(NCc1cccc(Cl)c1)c1ccc(CS(=O)Cc2ccc(Cl)cc2)o1 (stereo not drawn),"inconclusive: 4.11 µM [cytotoxic, full curve, poor fit]",–
